Assay results from paper PMC6353870.
Results are given in words; binding and its absence hold for the method and conditions named. Binding seen in cells or lysates may run through a third protein. A result given as binding can be weak or reduced; the word gives no strength. Tags and fused reporters may be left off the sequences shown.

What was measured:
[1] = target: 3xflag-EWS-FLI1 K298R; experiment: co-IP; myc-USP19 co-expressed with 3xflag-EWS-FLI1 wild-type or mutants (K298R or K380R); cell line not stated (Fig. S2d)
[2] = target: 3xflag-EWS-FLI1 K380R; experiment: as above

binding [1]: binds
binding [2]: binds
B1: 3xmyc-USP19 (ubiquitin specific protease 19) (enzyme, UniProt O94966 1-1318)
chain: MSGGASATGPRRGPPGLEDTTSKKKQKDRANQESKDGDPRKETGSRYVAQAGLEPLASGDPSASASHAAGITGSRHRTRLFFPSSSGSASTPQEEQTKEGACEDPHDLLATPTPELLLDWRQSAEEVIVKLRVGVGPLQLEDVDAAFTDTDCVVRFAGGQQWGGVFYAEIKSSCAKVQTRKGSLLHLTLPKKVPMLTWPSLLVEADEQLCIPPLNSQTCLLGSEENLAPLAGEKAVPPGNDPVSPAMVRSRNPGKDDCAKEEMAVAADAATLVDEPESMVNLAFVKNDSYEKGPDSVVVHVYVKEICRDTSRVLFREQDFTLIFQTRDGNFLRLHPGCGPHTTFRWQVKLRNLIEPEQCTFCFTASRIDICLRKRQSQRWGGLEAPAARVGGAKVAVPTGPTPLDSTPPGGAPHPLTGQEEARAVEKDKSKARSEDTGLDSVATRTPMEHVTPKPETHLASPKPTCMVPPMPHSPVSGDSVEEEEEEEKKVCLPGFTGLVNLGNTCFMNSVIQSLSNTRELRDFFHDRSFEAEINYNNPLGTGGRLAIGFAVLLRALWKGTHHAFQPSKLKAIVASKASQFTGYAQHDAQEFMAFLLDGLHEDLNRIQNKPYTETVDSDGRPDEVVAEEAWQRHKMRNDSFIVDLFQGQYKSKLVCPVCAKVSITFDPFLYLPVPLPQKQKVLPVFYFAREPHSKPIKFLVSVSKENSTASEVLDSLSQSVHVKPENLRLAEVIKNRFHRVFLPSHSLDTVSPSDTLLCFELLSSELAKERVVVLEVQQRPQVPSVPISKCAACQRKQQSEDEKLKRCTRCYRVGYCNQLCQKTHWPDHKGLCRPENIGYPFLVSVPASRLTYARLAQLLEGYARYSVSVFQPPFQPGRMALESQSPGCTTLLSTGSLEAGDSERDPIQPPELQLVTPMAEGDTGLPRVWAAPDRGPVPSTSGISSEMLASGPIEVGSLPAGERVSRPEAAVPGYQHPSEAMNAHTPQFFIYKIDSSNREQRLEDKGDTPLELGDDCSLALVWRNNERLQEFVLVASKELECAEDPGSAGEAARAGHFTLDQCLNLFTRPEVLAPEEAWYCPQCKQHREASKQLLLWRLPNVLIVQLKRFSFRSFIWRDKINDLVEFPVRNLDLSKFCIGQKEEQLPSYDLYAVINHYGGMIGGHYTACARLPNDRSSQRSDVGWRLFDDSTVTTVDESQVVTRYAYVLFYRRRNSPVERPPRAGHSEHHPDLGPAAEAAASQASRIWQELEAEEEPVPEGSGPLGPWGPQDWVGPLPRGPTTPDEGCLRYFVLGTVAALVALVLNVFYPLVSQSRWR
